# Measurements: PubChem BioAssay AID504327 (National Center for Advancing Translational Sciences (NCATS), 2011)
# Amino acid sequences for entries named in this document (tags omitted).
# UniProt Q92830, whole entry, looked up: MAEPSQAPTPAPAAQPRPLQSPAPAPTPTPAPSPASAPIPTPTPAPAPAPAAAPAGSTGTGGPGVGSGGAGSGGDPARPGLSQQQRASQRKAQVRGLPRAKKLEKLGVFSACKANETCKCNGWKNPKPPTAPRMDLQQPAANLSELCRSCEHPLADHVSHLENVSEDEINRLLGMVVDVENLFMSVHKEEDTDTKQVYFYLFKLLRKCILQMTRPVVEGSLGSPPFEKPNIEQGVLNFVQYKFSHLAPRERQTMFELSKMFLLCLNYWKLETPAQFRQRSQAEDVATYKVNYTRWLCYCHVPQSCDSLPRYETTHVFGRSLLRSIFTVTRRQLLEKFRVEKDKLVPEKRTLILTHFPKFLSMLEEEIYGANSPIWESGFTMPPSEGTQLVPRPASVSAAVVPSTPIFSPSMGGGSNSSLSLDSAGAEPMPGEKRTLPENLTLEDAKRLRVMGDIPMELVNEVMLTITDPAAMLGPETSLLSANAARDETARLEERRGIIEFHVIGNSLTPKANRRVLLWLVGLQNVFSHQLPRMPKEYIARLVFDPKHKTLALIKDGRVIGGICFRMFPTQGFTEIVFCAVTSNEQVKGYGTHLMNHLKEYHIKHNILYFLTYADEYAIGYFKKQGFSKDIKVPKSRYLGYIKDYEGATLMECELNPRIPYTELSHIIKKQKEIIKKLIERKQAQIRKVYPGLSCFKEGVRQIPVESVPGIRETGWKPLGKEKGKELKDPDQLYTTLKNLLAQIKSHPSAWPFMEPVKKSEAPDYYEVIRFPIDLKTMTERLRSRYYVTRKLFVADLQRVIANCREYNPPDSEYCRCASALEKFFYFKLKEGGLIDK
# Hit rate of the full screen: of about 390,000 compounds, about 820 (0.21%) were called active. The shares of active, inactive and inconclusive entries below differ from those in the screen. Calls come from the whole dose curve; as a rule, active = well fitted inhibition curve with a large enough effect; inconclusive = small, poorly fitted or top-dose-only effect, or another doubt; inactive = no such curve, though single readings can be large or run the other way. Potencies of inconclusive entries are doubtful fits and often do not repeat.
# Biological target: Histone acetyltransferase KAT2A (Homo sapiens) (UniProt Q92830)
# Assay: qHTS Assay for Inhibitors of GCN5L2
# Conditions: GCN5L2 HAT assay, ThioGlo1 CoA-SH fluorescence; activity change, negative = inhibition: at 58.9 µM (top of the series) unless noted
# In short: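 ThioGlo1-coupled HAT assay: 20nM GCN5L2, 70uM acetyl-CoA, 75uM H3(1-25) peptide, pH 7.5. Fluorescence read at 340/540nm at start and after 20 min at room temperature.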
# % is set by controls: 0 for no effect and ±100 for the full control effect; potency is the fitted concentration of half-maximal effect.
SMILES,"activity change, negative = inhibition",Potency
O=C1CC[C@@H](OCc2ccccc2)CCN1CC[C@H](Sc1ccccc1)c1ccccc1,inactive: -22.4%,–
O=C(O)CCN1C(=O)/C(=C\c2cccc(OCc3ccccc3)c2)SC1=S,–,"inconclusive: 35.5 µM [inhibitor, single point]"
O=C(Nc1cc(Cl)ccc1-n1cncn1)c1ccc([N+](=O)[O-])s1,–,"inconclusive: 1.41 µM [inhibitor, full curve, poor fit]"
O=C1c2ccsc2SCCN1Cc1c(F)cccc1Cl,–,"inconclusive: 0.891 µM [inhibitor, single point]"
O=C(O)c1cccc(S(=O)(=O)Nc2ccccc2Cl)c1,–,"inconclusive: 0.562 µM [inhibitor, single point]"
CCOc1ccc(-c2nnc(Nc3ccc(OC)c(C(=O)N4CCCCC4)c3)c3ccccc23)cc1,–,"inconclusive: 39.8 µM [inhibitor, single point]"
O=C1N(Cc2cccc(Cl)c2)C[C@@H]2C[C@@H](c3cccn3-c3ccccn3)N3CCC[C@@]123,–,"inconclusive: 39.8 µM [inhibitor, single point]"
O=S(=O)(c1ccccc1)N(CC(O)Cn1c2ccccc2c2ccccc21)c1ccccc1 (centres undefined),–,"inconclusive: 2 µM [inhibitor, partial curve]"
COc1cccc(CNC(=O)c2cccc(NC3=NC4CS(=O)(=O)CC4S3)c2)c1 (centres undefined),–,"inconclusive: 15.8 µM [inhibitor, partial curve]"
COc1ccc(C2=CC(c3ccc(C)cc3)n3nnnc3N2)cc1 (centres undefined),–,"inconclusive: 39.8 µM [inhibitor, partial curve, poor fit]"
Cc1nc2c(=O)[nH]c(=S)n(C)c2nc1C,–,"inconclusive: 31.6 µM [inhibitor, single point]"
O=C1c2[nH]nc(-c3ccccc3O)c2C(c2cccc(Cl)c2)N1CC1CCCO1 (centres undefined),inactive: -4.97%,–
COc1ccc(-n2ccnc2SCC(=O)Nc2ccccc2)cc1,–,"inconclusive: 39.8 µM [inhibitor, single point]"
N#Cc1cc(Cl)c(NCC2CCCO2)cc1C#N (centres undefined),inactive: -8.79%,–
O=C(NCCc1ccccc1)c1ccc2nc(-c3ccco3)c(-c3ccco3)nc2c1,inconclusive: -84.4% [inhibitor],–
S=c1[nH]c2ccccc2s1,–,active: 20 µM
CCc1ccccc1Nc1nc2ccccc2n1C(C)C,–,"inconclusive: 8.91 µM [inhibitor, single point]"
O=c1c2c3c(sc2n2c(=S)[nH]nc2n1-c1ccccc1)CCC3,–,"inconclusive: 39.8 µM [inhibitor, single point]"
N#C/C(=C\c1ccc(O)c(O)c1)S(=O)(=O)c1ccccc1,–,"inconclusive: 7.94 µM [inhibitor, full curve, poor fit]"

# Arranged by SMILES length (high to low): 3 of the compounds above.
SMILES,"activity change, negative = inhibition",Potency
O=S(=O)(c1ccccc1)N(CC(O)Cn1c2ccccc2c2ccccc21)c1ccccc1 (centres undefined),–,"inconclusive: 2 µM [inhibitor, partial curve]"
COc1ccc(C2=CC(c3ccc(C)cc3)n3nnnc3N2)cc1 (centres undefined),–,"inconclusive: 39.8 µM [inhibitor, partial curve, poor fit]"
Cc1nc2c(=O)[nH]c(=S)n(C)c2nc1C,–,"inconclusive: 31.6 µM [inhibitor, single point]"
